{
  "source": "paper PMC8446801",
  "about": "“Coiled-coil binding of the leucine zipper domains of APOL1 is necessary for the open cation channel conformation” (The Journal of Biological Chemistry, 2021)",
  "binders": {"B1": {"name": "APOL1 A375C (natural protein, human, UniProt O14791 28-398, looked up)", "chain": "EEAGARVQQNVPSGTDTGDPQSKPLGDWAAGTMDPESSIFIEDAIKYFKEKVSTQNLLLLLTDNEAWNGFVAAAELPRNEADELRKALDNLARQMIMKDKNWHDKGQQYRNWFLKEFPRLKSKLEDNIRRLRALADGVQKVHKGTTIANVVSGSLSISSGILTLVGMGLAPFTEGGSLVLLEPGMELGITAALTGITSSTIDYGKKWWTQAQAHDLVIKSLDKLKEVKEFLGENISNFLSLAGNTYQLTRGIGKDIRALRRARANLQSVPHASASRPRVTEPISAESGEQVERVNEPSILEMSRGVKLTDVAPVSFFLVLDVVYLVYESKHLHEGAKSETAEELKKVCQELEEKLNILNNNYKILQADQEL", "notes": "Apolipoprotein L-I (APOL1) G0, human, aa 28-398 (without the signal peptide), most common isoform K150, I228, K255 (GenBank AAI12944.2); Cysteine at the a position of the C-terminal leucine zipper (ZIP) domain; APOL1 has no endogenous cysteines; Stored with 1 mM DTT in the SEC buffer; also called apolipoprotein L-I A375C; source: E. coli BL21-DE3-RIPL, purified (nickel-chelate chromatography, …)"}},
  "key": {"APOL1 A375C (human) [1]": {"biological_target": "APOL1 A375C (human) (UniProt O14791)", "experiment": "condition: only 2 h at pH 7.2 without prior acidification; cross-linking; disulfide trapping between substituted cysteines, no membranes; protein (~0.159 uM) in 0.2 ml buffer (5 mM succinate, 5 mM Hepes, 0.5 mM KCl, 5 mM CaCl2), room temperature, 2 h at pH 7.2; nonreducing SDS-PAGE, silver stain; both purified"}, "APOL1 A375C (human) [2]": {"biological_target": "APOL1 A375C (human) (UniProt O14791)", "experiment": "condition: only 2 h at pH 5.6 with only brief neutralization (adjusted to pH 7.2 immediately before addition of sample buffer); cross-linking; disulfide trapping between substituted cysteines, no membranes; protein (~0.159 uM) in 0.2 ml buffer (5 mM succinate, 5 mM Hepes, 0.5 mM KCl, 5 mM CaCl2), room temperature, 2 h at pH 5.6, neutralised only immediately before addition of sample buffer; nonreducing SDS-PAGE, silver stain; both …"}},
  "note": "No constants are given. Whether binding was seen depends on the method and setting.",
  "data": [
    {"binder": "B1", "values": [
      {"measurement": "binding", "setting": "APOL1 A375C (human) [1]", "value": "no binding"},
      {"measurement": "binding", "setting": "APOL1 A375C (human) [2]", "value": "no binding"}
    ]}
  ]
}
